Read-outs that look alike come from different tables or passages of the source. These are yes or no findings as the source states them, for the method shown. For some of these results: Binding seen in cells or lysates may run through a third protein. Some results given as binding are weak or reduced against the parent protein; the word gives no strength. Sequences can lack the tags named with a protein.

The chains behind the UniProt entries cited, without tags or fusion partners.
UniProt Q13257: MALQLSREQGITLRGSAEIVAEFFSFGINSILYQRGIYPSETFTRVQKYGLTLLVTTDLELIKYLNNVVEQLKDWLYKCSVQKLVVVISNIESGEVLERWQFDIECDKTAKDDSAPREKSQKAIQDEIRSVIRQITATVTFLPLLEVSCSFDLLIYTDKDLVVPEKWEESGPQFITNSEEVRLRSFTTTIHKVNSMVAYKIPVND
UniProt O43683: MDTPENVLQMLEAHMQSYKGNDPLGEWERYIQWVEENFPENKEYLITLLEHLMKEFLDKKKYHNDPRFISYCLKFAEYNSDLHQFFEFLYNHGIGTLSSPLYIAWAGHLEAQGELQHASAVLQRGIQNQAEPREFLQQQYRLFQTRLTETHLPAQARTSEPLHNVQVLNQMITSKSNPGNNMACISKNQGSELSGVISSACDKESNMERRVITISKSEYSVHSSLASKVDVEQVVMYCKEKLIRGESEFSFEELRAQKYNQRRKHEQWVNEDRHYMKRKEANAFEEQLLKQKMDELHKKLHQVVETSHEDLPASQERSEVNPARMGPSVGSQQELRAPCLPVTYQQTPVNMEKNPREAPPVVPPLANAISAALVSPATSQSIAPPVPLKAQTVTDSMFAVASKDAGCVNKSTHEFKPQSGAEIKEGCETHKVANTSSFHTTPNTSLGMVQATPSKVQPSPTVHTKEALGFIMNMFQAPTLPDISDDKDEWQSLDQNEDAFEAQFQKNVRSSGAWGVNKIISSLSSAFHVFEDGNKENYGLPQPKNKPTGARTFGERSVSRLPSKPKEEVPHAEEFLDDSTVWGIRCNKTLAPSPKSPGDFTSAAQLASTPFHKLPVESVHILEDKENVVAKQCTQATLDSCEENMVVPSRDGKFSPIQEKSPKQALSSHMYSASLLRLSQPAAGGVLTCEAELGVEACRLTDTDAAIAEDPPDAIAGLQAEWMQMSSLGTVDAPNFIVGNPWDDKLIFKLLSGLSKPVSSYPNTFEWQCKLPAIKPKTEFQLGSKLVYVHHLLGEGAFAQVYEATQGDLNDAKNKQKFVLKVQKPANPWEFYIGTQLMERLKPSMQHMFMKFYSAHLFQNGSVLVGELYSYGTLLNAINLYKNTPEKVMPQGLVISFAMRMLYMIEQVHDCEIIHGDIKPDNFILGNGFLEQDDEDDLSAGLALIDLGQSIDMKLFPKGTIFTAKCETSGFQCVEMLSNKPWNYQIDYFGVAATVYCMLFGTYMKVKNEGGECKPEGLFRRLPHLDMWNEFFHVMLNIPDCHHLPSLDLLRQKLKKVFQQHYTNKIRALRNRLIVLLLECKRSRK

Experiment [1] concerns the target T1, GFP-hSpindly (human) (UniProt Q96EA4).
T1 sequence: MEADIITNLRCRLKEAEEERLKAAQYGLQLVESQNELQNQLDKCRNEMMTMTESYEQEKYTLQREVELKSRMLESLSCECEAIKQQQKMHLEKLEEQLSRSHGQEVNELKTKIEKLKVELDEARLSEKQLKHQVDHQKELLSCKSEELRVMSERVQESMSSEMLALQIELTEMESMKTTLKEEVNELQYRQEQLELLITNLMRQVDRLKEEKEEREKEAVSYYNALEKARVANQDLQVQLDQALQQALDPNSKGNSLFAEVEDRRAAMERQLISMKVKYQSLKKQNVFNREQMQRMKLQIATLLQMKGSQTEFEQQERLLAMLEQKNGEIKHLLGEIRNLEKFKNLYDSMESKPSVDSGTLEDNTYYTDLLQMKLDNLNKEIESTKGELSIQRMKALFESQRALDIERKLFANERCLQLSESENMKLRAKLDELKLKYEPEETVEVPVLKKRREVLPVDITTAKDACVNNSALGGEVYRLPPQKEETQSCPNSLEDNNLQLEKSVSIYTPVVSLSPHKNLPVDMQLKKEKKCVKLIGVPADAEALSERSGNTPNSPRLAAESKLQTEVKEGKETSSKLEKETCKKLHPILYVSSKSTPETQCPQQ
Briefly: co-IP.

For experiment [2], the target named is T2, GFP-hSpindly T552A (human) (UniProt Q96EA4).
T2 sequence: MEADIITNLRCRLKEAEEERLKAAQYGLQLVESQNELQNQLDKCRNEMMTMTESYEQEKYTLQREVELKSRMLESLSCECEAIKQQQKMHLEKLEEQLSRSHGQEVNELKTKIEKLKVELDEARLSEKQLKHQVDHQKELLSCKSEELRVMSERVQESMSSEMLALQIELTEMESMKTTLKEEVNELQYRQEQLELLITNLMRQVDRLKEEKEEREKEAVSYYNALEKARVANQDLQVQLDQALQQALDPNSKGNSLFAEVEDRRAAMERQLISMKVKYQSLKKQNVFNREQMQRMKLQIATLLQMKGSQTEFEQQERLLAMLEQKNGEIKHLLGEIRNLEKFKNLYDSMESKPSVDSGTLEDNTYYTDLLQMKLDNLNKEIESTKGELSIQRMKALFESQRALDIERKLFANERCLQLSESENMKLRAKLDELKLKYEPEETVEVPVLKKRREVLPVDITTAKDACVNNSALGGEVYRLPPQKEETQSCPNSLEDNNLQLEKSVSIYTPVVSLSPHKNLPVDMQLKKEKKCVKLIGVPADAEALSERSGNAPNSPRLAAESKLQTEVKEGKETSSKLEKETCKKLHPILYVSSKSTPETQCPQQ
Briefly: co-IP.

Experiment [3] has as its target T1, GFP-hSpindly (human). Briefly: co-IP. This is another data set of the same source.
The target in experiment [4] is T3, GFP-hSpindly (human), Q96EA4.
T3 chain: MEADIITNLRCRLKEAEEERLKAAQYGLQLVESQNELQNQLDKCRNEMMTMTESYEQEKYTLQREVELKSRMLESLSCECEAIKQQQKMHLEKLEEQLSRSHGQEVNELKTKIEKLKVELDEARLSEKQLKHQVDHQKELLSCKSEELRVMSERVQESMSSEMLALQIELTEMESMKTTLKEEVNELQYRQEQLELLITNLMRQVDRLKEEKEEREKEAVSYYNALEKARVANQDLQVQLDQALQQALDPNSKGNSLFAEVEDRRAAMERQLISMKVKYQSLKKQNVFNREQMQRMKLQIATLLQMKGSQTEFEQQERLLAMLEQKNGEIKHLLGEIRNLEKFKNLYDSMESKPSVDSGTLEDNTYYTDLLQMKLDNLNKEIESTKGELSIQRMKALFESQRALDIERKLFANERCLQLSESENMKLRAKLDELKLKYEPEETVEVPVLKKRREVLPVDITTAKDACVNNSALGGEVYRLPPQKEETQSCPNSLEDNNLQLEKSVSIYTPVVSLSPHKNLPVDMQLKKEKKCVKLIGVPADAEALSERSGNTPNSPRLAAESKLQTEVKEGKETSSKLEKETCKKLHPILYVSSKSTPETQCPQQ
In words: Number and Brightness. Particulars: remark: other sources report otherwise.

The target of experiment [5] is T4, Mad1 (human (endogenous in RPE-1)) (UniProt Q9Y6D9).
T4 sequence: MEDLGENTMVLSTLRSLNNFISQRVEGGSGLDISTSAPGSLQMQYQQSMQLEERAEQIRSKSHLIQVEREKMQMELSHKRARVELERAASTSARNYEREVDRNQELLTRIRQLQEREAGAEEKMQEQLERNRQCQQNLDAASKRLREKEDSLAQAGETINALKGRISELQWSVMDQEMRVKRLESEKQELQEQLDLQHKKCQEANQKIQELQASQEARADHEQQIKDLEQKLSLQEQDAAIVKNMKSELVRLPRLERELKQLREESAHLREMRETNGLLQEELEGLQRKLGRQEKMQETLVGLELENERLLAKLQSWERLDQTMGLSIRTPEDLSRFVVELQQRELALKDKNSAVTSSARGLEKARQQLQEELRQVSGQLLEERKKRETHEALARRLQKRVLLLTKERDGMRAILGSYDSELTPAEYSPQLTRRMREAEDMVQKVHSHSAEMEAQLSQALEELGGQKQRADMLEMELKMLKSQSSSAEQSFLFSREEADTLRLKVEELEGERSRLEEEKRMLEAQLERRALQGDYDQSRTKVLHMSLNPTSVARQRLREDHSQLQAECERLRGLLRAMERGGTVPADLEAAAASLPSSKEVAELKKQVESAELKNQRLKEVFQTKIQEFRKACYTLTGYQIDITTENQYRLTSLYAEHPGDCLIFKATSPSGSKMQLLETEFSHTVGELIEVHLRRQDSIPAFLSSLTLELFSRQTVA
In words: co-IP.

Experiment [6] deals with Mad2 (human (endogenous in RPE-1)) (UniProt Q13257). In words: co-IP.

As to Bub1 (from UniProt O43683 1-1085), the binding result in experiment [1], in experiment [2] and in experiment [3] was “binds” in each case.

B1: Mad1 (protein, UniProt Q9Y6D9 1-718)
chain: MEDLGENTMVLSTLRSLNNFISQRVEGGSGLDISTSAPGSLQMQYQQSMQLEERAEQIRSKSHLIQVEREKMQMELSHKRARVELERAASTSARNYEREVDRNQELLTRIRQLQEREAGAEEKMQEQLERNRQCQQNLDAASKRLREKEDSLAQAGETINALKGRISELQWSVMDQEMRVKRLESEKQELQEQLDLQHKKCQEANQKIQELQASQEARADHEQQIKDLEQKLSLQEQDAAIVKNMKSELVRLPRLERELKQLREESAHLREMRETNGLLQEELEGLQRKLGRQEKMQETLVGLELENERLLAKLQSWERLDQTMGLSIRTPEDLSRFVVELQQRELALKDKNSAVTSSARGLEKARQQLQEELRQVSGQLLEERKKRETHEALARRLQKRVLLLTKERDGMRAILGSYDSELTPAEYSPQLTRRMREAEDMVQKVHSHSAEMEAQLSQALEELGGQKQRADMLEMELKMLKSQSSSAEQSFLFSREEADTLRLKVEELEGERSRLEEEKRMLEAQLERRALQGDYDQSRTKVLHMSLNPTSVARQRLREDHSQLQAECERLRGLLRAMERGGTVPADLEAAAASLPSSKEVAELKKQVESAELKNQRLKEVFQTKIQEFRKACYTLTGYQIDITTENQYRLTSLYAEHPGDCLIFKATSPSGSKMQLLETEFSHTVGELIEVHLRRQDSIPAFLSSLTLELFSRQTVA
As to B1, in experiment [3], the binding result is recorded as “binds”.

B2: Aurora A kinase (protein, UniProt O14965 1-403)
chain: MDRSKENCISGPVKATAPVGGPKRVLVTQQFPCQNPLPVNSGQAQRVLCPSNSSQRIPLQAQKLVSSHKPVQNQKQKQLQATSVPHPVSRPLNNTQKSKQPLPSAPENNPEEELASKQKNEESKKRQWALEDFEIGRPLGKGKFGNVYLAREKQSKFILALKVLFKAQLEKAGVEHQLRREVEIQSHLRHPNILRLYGYFHDATRVYLILEYAPLGTVYRELQKLSKFDEQRTATYITELANALSYCHSKRVIHRDIKPENLLLGSAGELKIADFGWSVHAPSSRRTTLCGTLDYLPPEMIEGRMHDEKVDLWSLGVLCYEFLVGKPPFEANTYQETYKRISRVEFTFPDFVTEGARDLISRLLKHNPSQRPMLREVLEHPWITANSSKPSNCQNKESASKQS
As for B2, the binding entry in experiment [1], in experiment [2] and in experiment [3] was “binds” in each case.

B3: GFP-hSpindly, Q96EA4 1-605 (protein)
chain: MEADIITNLRCRLKEAEEERLKAAQYGLQLVESQNELQNQLDKCRNEMMTMTESYEQEKYTLQREVELKSRMLESLSCECEAIKQQQKMHLEKLEEQLSRSHGQEVNELKTKIEKLKVELDEARLSEKQLKHQVDHQKELLSCKSEELRVMSERVQESMSSEMLALQIELTEMESMKTTLKEEVNELQYRQEQLELLITNLMRQVDRLKEEKEEREKEAVSYYNALEKARVANQDLQVQLDQALQQALDPNSKGNSLFAEVEDRRAAMERQLISMKVKYQSLKKQNVFNREQMQRMKLQIATLLQMKGSQTEFEQQERLLAMLEQKNGEIKHLLGEIRNLEKFKNLYDSMESKPSVDSGTLEDNTYYTDLLQMKLDNLNKEIESTKGELSIQRMKALFESQRALDIERKLFANERCLQLSESENMKLRAKLDELKLKYEPEETVEVPVLKKRREVLPVDITTAKDACVNNSALGGEVYRLPPQKEETQSCPNSLEDNNLQLEKSVSIYTPVVSLSPHKNLPVDMQLKKEKKCVKLIGVPADAEALSERSGNTPNSPRLAAESKLQTEVKEGKETSSKLEKETCKKLHPILYVSSKSTPETQCPQQ
For B3, in experiment [4], the binding entry is recorded as “binds”.

B4: GFP-hSpindly (protein, UniProt Q96EA4 1-605)
chain: MEADIITNLRCRLKEAEEERLKAAQYGLQLVESQNELQNQLDKCRNEMMTMTESYEQEKYTLQREVELKSRMLESLSCECEAIKQQQKMHLEKLEEQLSRSHGQEVNELKTKIEKLKVELDEARLSEKQLKHQVDHQKELLSCKSEELRVMSERVQESMSSEMLALQIELTEMESMKTTLKEEVNELQYRQEQLELLITNLMRQVDRLKEEKEEREKEAVSYYNALEKARVANQDLQVQLDQALQQALDPNSKGNSLFAEVEDRRAAMERQLISMKVKYQSLKKQNVFNREQMQRMKLQIATLLQMKGSQTEFEQQERLLAMLEQKNGEIKHLLGEIRNLEKFKNLYDSMESKPSVDSGTLEDNTYYTDLLQMKLDNLNKEIESTKGELSIQRMKALFESQRALDIERKLFANERCLQLSESENMKLRAKLDELKLKYEPEETVEVPVLKKRREVLPVDITTAKDACVNNSALGGEVYRLPPQKEETQSCPNSLEDNNLQLEKSVSIYTPVVSLSPHKNLPVDMQLKKEKKCVKLIGVPADAEALSERSGNTPNSPRLAAESKLQTEVKEGKETSSKLEKETCKKLHPILYVSSKSTPETQCPQQ
Consider B4, for which the binding result in experiment [5] and in experiment [6] was “binds” in each case.

Values taken from paper doi:10.1101/2025.07.25.666731.
